According to PMC3334623:
Results are given in words; binding and its absence hold for the method and conditions named. Binding seen in cells or lysates may run through a third protein. These calls come from enrichment with a bait or labelling near it, and not all partners need be listed. No binding means not detected with the bait. Sequences can lack the tags named with a protein.

Target: T1, Sin3a-3xFLAG (mouse), Q60520
T1 chain: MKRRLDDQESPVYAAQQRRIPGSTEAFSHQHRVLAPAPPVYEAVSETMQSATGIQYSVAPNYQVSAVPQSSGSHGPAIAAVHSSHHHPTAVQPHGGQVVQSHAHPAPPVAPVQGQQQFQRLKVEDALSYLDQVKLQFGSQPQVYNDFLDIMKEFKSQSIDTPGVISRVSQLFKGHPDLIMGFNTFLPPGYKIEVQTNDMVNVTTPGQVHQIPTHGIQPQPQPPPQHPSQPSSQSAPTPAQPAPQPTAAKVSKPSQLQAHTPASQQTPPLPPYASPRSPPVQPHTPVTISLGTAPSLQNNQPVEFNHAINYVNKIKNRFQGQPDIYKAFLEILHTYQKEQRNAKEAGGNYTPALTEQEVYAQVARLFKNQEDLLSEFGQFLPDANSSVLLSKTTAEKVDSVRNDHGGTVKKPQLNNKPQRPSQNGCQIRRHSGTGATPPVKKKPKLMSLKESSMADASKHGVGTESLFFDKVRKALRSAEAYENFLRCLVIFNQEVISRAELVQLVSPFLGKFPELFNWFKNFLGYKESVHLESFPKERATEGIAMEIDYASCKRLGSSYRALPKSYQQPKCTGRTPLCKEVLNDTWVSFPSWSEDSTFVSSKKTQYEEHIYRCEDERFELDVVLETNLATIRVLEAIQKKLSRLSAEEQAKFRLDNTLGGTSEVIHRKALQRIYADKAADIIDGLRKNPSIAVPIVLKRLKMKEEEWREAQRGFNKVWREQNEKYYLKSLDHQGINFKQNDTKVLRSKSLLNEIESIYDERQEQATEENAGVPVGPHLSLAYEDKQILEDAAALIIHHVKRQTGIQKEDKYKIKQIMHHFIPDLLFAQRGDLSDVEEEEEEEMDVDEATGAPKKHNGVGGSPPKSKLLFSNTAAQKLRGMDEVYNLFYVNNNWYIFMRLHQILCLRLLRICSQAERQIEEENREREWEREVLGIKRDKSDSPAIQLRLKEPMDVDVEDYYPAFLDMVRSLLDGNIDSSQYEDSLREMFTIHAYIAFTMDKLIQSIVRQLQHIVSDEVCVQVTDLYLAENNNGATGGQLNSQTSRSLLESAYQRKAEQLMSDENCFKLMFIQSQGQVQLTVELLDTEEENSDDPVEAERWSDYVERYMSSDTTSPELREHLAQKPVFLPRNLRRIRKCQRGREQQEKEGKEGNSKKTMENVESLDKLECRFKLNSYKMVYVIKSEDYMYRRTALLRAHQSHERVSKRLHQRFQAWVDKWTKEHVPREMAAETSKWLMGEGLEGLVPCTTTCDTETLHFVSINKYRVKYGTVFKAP
Experiment: affinity purification with mass spectrometry; anti-FLAG M2 resin, 4 h at 4 °C, with 13-15 mg nuclear extract of E14tg2a ES cells expressing Sin3a-3xFLAG or 3xFLAG alone; IP buffer 25 mM HEPES-KOH pH 7.6, 140 mM KCl, 10% glycerol, 0.1% Igepal CA-630; washes with 250 mM KCl; elution with 3x FLAG peptide; SDS-PAGE and LC-MS/MS; four independent pull downs
Details: remark: other sources report otherwise

binding: no binding
B1: Sin3b, Q62141 1-1098 (protein)
chain: MAHAGSGGSAGRGFGGSRWGRSGSGGHEKLPVHVEDALTYLDQVKIRFGSDPATYNGFLEIMKEFKSQSIDTPGVIRRVSQLFHEHPDLIVGFNAFLPLGYRIDIPKNGKLNIQSPLSSQDNSHSHGDCGEDFKQMSYKEDRGQVPLESDSVEFNNAISYVNKIKTRFLDHPEIYRSFLEILHTYQKEQLHTKGRPFRGMSEEEVFTEVANLFRGQEDLLSEFGQFLPEAKRSLFTGNGSCEMNSGQKNEEKSLEHNKKRSRPSLLRPVSAPAKKKMKLRGTKDLSIAAVGKYGTLQEFSFFDKVRRVLKSQEVYENFLRCIALFNQELVSGSELLQLVSPFLGKFPELFAQFKSFLGVKELSFAPPMSDRSGDGISREIDYASCKRIGSSYRALPKTYQQPKCSGRTAICKEVLNDTWVSFPSWSEDSTFVSSKKTPYEEQLHRCEDERFELDVVLETNLATIRVLESVQKKLSRMAPEDQEKLRLDDCLGGTSEVIQRRAIHRIYGDKAPEVIESLKRNPATAVPVVLKRLKAKEEEWREAQQGFNKIWREQYEKAYLKSLDHQAVNFKQNDTKALRSKSLLNEIESVYDEHQEQHSEGRSAPSSEPHLIFVYEDRQILEDAAALISYYVKRQPAIQKEDQGTIRQLLHRFLPSLFFSQQCPGTSDDSADERDRDRDSAEPERRRPTDEKPPADASPEPPKVLDDVYSLFFANNNWYFFLRLHQTLCARLLKIYRQAQKQLLEHRREQEREQLLCEGRREKAADPAMELRLKQPSEVELEEYYPAFLDMVRSLLEGSIDPTQYEDTLREMFTIHAYIGFTMDKLVQNIARQLHHLVSDDVCLKVVELYLNEQQRGAAGGNLSSRCVRAARETSYQWKAERCMADENCFKVMFLQRRGQVIMTIELLDTEEAQTEDPVEVQHLARYVEQYVGSEGASSSSTEGFLLKPVFLQRNLKKFRRWQCEQVRAMRGEAKSSWKRLMGVESACDVDCRFRLGTHKMVFIVNSEDYMYRRGTLCRAKQVQPLVLLRHHRHFEEWHGRWLEDNVTVAAAGLVQDWLMGEEEEDMVPCKTLCETAHVHGLPVTRYRVQYSRRPASP
